Measured values as given in PubChem BioAssay AID330 (DTP/NCI, 2004).
The list is a part of this screen's results and no random one: it gathers tests that were run many times, whatever their T/C, doses with no T/C, and many T/C values between a quarter and a half above the control. Other doses and runs of a compound stand elsewhere. T/C is the treated group as % of the vehicle group. Some entries give survivors of the animals treated and no T/C: the source holds a T/C of zero for them, seemingly a mark for toxic or unscored doses. Some survivor counts are full or nearly so, which does not show that the dose was tolerated: the source hardly ever lists a survival T/C far under the control, and the zero likely stands for such cases as well. Counts of survivors are from the toxicity check (mostly the fifth day) where no day follows; animals may have died later. Schedule codes are those of the source, read here as Q, the interval in days (D) or hours (H), X, the number of doses. Some entries hold several experiments; their values stand side by side, smallest first. For survival time, this PubChem deposit counts one and a half times the control or more as active, and values a quarter to a half above the control carry no call in these data; other NCI protocols may use other cut-offs. Some T/C values are followed by the survivors on the day toxicity was checked, most often the fifth; where none is given, no animal had died by that day.

Tested on: P388 leukemia ip, CD2F1 mice, survival T/C
Assay: NCI In Vivo Anticancer Drug Screen. Data for tumor model P388 Leukemia (intraperitoneal) in CD2F1 (CDF1) mice
Details: T/C endpoint: median survival time, higher T/C = longer survival
[1] = dose: 50.0 mg/kg/injection, schedule: Q01DX005 (ip), vehicle: Klucel (hydroxypropylcellulose) (HPC)
[2] = dose: 100.0 mg/kg/injection, schedule: Q01DX005 (ip), vehicle: Klucel (hydroxypropylcellulose) (HPC)
[3] = dose: 200.0 mg/kg/injection, schedule: Q01DX005 (ip), vehicle: Klucel (hydroxypropylcellulose) (HPC)
[4] = dose: 12.5 mg/kg/injection, schedule: Q01DX005 (ip), vehicle: Klucel (hydroxypropylcellulose) (HPC)
[5] = dose: 100.0 mg/kg/injection, schedule: Q01DX009 (ip), vehicle: saline
[6] = dose: 400.0 mg/kg/injection, schedule: Q04DX003 (ip), vehicle: saline with Tween-80
[7] = dose: 100.0 mg/kg/injection, schedule: Q01DX005 (ip), vehicle: saline with Tween-80
[8] = dose: 200.0 mg/kg/injection, schedule: Q01DX005 (ip), vehicle: saline with Tween-80
[9] = dose: 0.75 mg/kg/injection, schedule: Q01DX009 (ip), vehicle: Klucel (hydroxypropylcellulose) (HPC)
[10] = dose: 1.5 mg/kg/injection, schedule: Q01DX009 (ip), vehicle: Klucel (hydroxypropylcellulose) (HPC)
[11] = dose: 3.0 mg/kg/injection, schedule: Q01DX009 (ip), vehicle: Klucel (hydroxypropylcellulose) (HPC)
[12] = dose: 50.0 mg/kg/injection, schedule: Q01DX009 (ip), vehicle: saline
[13] = dose: 200.0 mg/kg/injection, schedule: Q01DX009 (ip), vehicle: saline
[14] = dose: 240.0 mg/kg/injection, schedule: Q01DX005 (ip), vehicle: saline with Tween-80

C#CC1CC2C3CCC4=CC(=O)CCC4(C)C3CCC2(C)C1N(C)C (configuration not stated) was tested, and the survivor count [1] was 3 of 6, the survivor count [2] was 0 of 6 and the survivor count [3] was 0 of 6.

For CCN(CC)CCCCNC(=O)c1noc2cc([N+](=O)[O-])ccc12, the T/C [4] was 125 % of control, the T/C (dose: 50.0 mg/kg/injection, schedule: Q01DX005 (ip), vehicle: Klucel (hydroxypropylcellulose) (HPC), evaluated on day 20) was 100 % of control and the T/C (dose: 50.0 mg/kg/injection, schedule: Q01DX005 (ip), vehicle: Klucel (hydroxypropylcellulose) (HPC), evaluated on day 30) was 100 [5 of 6 alive], 101, 105 % of control. For the same molecule, the survivor count [2] was 0 of 5 and the survivor count [3] was 0 of 5.

For CCC[N+](CCC)=c1ccc2nc3c(C)cc(N(CC)CC)cc3sc-2c1, the survivor count (dose: 25.0 mg/kg/injection, schedule: Q01DX009 (ip), vehicle: saline) was 4 of 6.

CC/C(=N\NS(=O)(=O)c1ccc(C)cc1)c1ccc(OC)c(C)c1 was tested, and the survivor count [5] was 4 of 6.

With CC(=O)SCC1C(=O)CCCC1=O the survivor count (dose: 100.0 mg/kg/injection, schedule: Q04DX003 (ip), vehicle: saline with Tween-80) was 3 of 6 and 4 of 6, the survivor count (dose: 200.0 mg/kg/injection, schedule: Q04DX003 (ip), vehicle: saline with Tween-80) was 0 of 6 and the survivor count [6] was 0 of 6.

With CC(C#N)(S(C)(=O)=O)S(=O)(=O)c1ccccc1 (configuration not stated) the survivor count (dose: 12.5 mg/kg/injection, schedule: Q01DX001 (ip), vehicle: saline with Tween-80) was 1 of 6 and 2 of 6, the survivor count (dose: 25.0 mg/kg/injection, schedule: Q01DX001 (ip), vehicle: saline with Tween-80) was 0 of 6 and the survivor count (dose: 50.0 mg/kg/injection, schedule: Q01DX001 (ip), vehicle: saline with Tween-80) was 0 of 6. For the same molecule, the survivor count (dose: 50.0 mg/kg/injection, schedule: Q01DX005 (ip), vehicle: saline with Tween-80) was 0 of 6, the survivor count [7] was 0 of 6 and the survivor count [8] was 0 of 6.

C=C(OC1C(C)=C2C(C1OC(=O)CCCCCCC)C(C)(OC(C)=O)CC(OC(=O)CCC)C1(O)C2OC(=O)C1(C)O)/C(C)=C/C (configuration not stated) was tested, and the T/C (dose: 0.37 mg/kg/injection, schedule: Q01DX009 (ip), vehicle: Klucel (hydroxypropylcellulose) (HPC)) was 87, 103, 108, 109 % of control, the T/C [9] was 108, 111, 114 % of control and the survivor count [9] was 5 of 6. For the same molecule, the T/C [10] was 90 [5 of 6 alive] and 126 % of control, the survivor count [10] was 6 of 6 and the T/C [11] was 126 % of control [5 of 6 alive]. For the same molecule, the survivor count [11] was 1 of 6, 3 of 6, 4 of 6.

For CCCOc1ccc2c(NCCCCNc3c4ccccc4nc4cc(OCCC)ccc34)c3ccccc3nc2c1, the survivor count (dose: 20.0 mg/kg/injection, schedule: Q01DX009 (ip), vehicle: other) was 2 of 6.

For COc1ccc2c(Cc3ccccc3)c3[n+](cc2c1OC)CCc1cc2c(cc1-3)OCO2, the T/C (dose: 3.12 mg/kg/injection, schedule: Q01DX005 (ip), vehicle: Klucel (hydroxypropylcellulose) (HPC)) was 128 % of control, the T/C (dose: 6.25 mg/kg/injection, schedule: Q01DX005 (ip), vehicle: Klucel (hydroxypropylcellulose) (HPC)) was 133 % of control and the survivor count [4] was 5 of 5. The survivor count (dose: 25.0 mg/kg/injection, schedule: Q01DX005 (ip), vehicle: Klucel (hydroxypropylcellulose) (HPC)) was 0 of 5, the survivor count [1] was 0 of 6 and the survivor count [2] was 0 of 6. For the same molecule, the survivor count [3] was 0 of 6.

In the case of CCN(CCCl)c1ccccc1, the survivor count [12] is reported as 6 of 6, the survivor count [5] is reported as 0 of 6 and the survivor count [13] is reported as 0 of 6.

CCCOc1cc2c(cc1C(C)c1ccc(OCC)cc1)OCO2 (configuration not stated) was tested, and the T/C [7] was 126 % of control, the survivor count (dose: 120.0 mg/kg/injection, schedule: Q01DX005 (ip), vehicle: Klucel (hydroxypropylcellulose) (HPC)) was 6 of 6 and the survivor count [8] was 6 of 6. The survivor count (dose: 240.0 mg/kg/injection, schedule: Q01DX005 (ip), vehicle: Klucel (hydroxypropylcellulose) (HPC)) was 6 of 6, the T/C [14] was 141 % of control [5 of 6 alive] and the survivor count (dose: 480.0 mg/kg/injection, schedule: Q01DX005 (ip), vehicle: Klucel (hydroxypropylcellulose) (HPC)) was 3 of 6.

CC(C)CNS(=O)(=O)c1ncnc2nc[nH]c12 was tested, and the survivor count [6] was 2 of 6.

In the case of N#CCCC1CS1 (configuration not stated), the survivor count (dose: 150.0 mg/kg/injection, schedule: Q01DX009 (ip), vehicle: saline with Tween-80) is reported as 4 of 6 and the survivor count (dose: 300.0 mg/kg/injection, schedule: Q01DX009 (ip), vehicle: saline with Tween-80) is reported as 0 of 6.

CN(C)NC(=O)[S-].CN(C)NC(=O)[S-].[Ni] was tested, and the survivor count (dose: 100.0 mg/kg/injection, schedule: Q01DX001 (ip), vehicle: saline with Tween-80) was 1 of 6 and the survivor count (dose: 200.0 mg/kg/injection, schedule: Q01DX001 (ip), vehicle: saline with Tween-80) was 0 of 6.

In the case of O=[N+]([O-])c1cnccc1Nc1ccncc1, the survivor count (dose: 400.0 mg/kg/injection, schedule: Q01DX001 (ip), vehicle: saline with Tween-80) is reported as 0 of 6.

O=C(c1ccc(Cl)cc1)n1c(Cl)c(/C=N\Nc2ccc([N+](=O)[O-])cc2[N+](=O)[O-])c2ccccc21 was tested, and the survivor count (dose: 50.0 mg/kg/injection, schedule: Q01DX001 (ip), vehicle: Klucel (hydroxypropylcellulose) (HPC)) was 6 of 6, the survivor count (dose: 100.0 mg/kg/injection, schedule: Q01DX001 (ip), vehicle: Klucel (hydroxypropylcellulose) (HPC)) was 6 of 6 and the survivor count (dose: 200.0 mg/kg/injection, schedule: Q01DX001 (ip), vehicle: Klucel (hydroxypropylcellulose) (HPC)) was 6 of 6.

With CC1(C)C2CC=C(CCOC(=S)S)C1C2.[Ni] (configuration not stated) the survivor count (dose: 50.0 mg/kg/injection, schedule: Q01DX009 (ip), vehicle: saline with Tween-80) was 6 of 6 and the survivor count (dose: 100.0 mg/kg/injection, schedule: Q01DX009 (ip), vehicle: saline with Tween-80) was 6 of 6.

In the case of O=S(=O)(F)c1cccc(Cl)c1C[P+](c1ccccc1)(c1ccccc1)c1ccccc1, the T/C (dose: 1.88 mg/kg/injection, schedule: Q01DX005 (ip), vehicle: saline with Tween-80) is reported as 128 % of control, the T/C (dose: 3.75 mg/kg/injection, schedule: Q01DX005 (ip), vehicle: saline with Tween-80) is reported as 135 % of control and the T/C (dose: 7.5 mg/kg/injection, schedule: Q01DX005 (ip), vehicle: saline with Tween-80) is reported as 136 % of control. For the same molecule, the T/C (dose: 7.5 mg/kg/injection, schedule: Q01DX005 (ip), vehicle: saline) was 129 % of control, the survivor count (dose: 15.0 mg/kg/injection, schedule: Q01DX005 (ip), vehicle: saline) was 5 of 6 and the survivor count (dose: 30.0 mg/kg/injection, schedule: Q01DX005 (ip), vehicle: saline) was 4 of 6. The survivor count (dose: 60.0 mg/kg/injection, schedule: Q01DX005 (ip), vehicle: saline with Tween-80) was 0 of 6, the survivor count (dose: 120.0 mg/kg/injection, schedule: Q01DX005 (ip), vehicle: saline with Tween-80) was 0 of 6 and the survivor count [14] was 0 of 6.

In the case of NNC(=O)CCCCl, the survivor count (dose: 240.0 mg/kg/injection, schedule: Q01DX005 (ip), vehicle: saline) is reported as 2 of 6.

With C[CH](C)[Sn](=[O])[CH](C)C the survivor count (dose: 6.25 mg/kg/injection, schedule: Q01DX009 (ip), vehicle: suspension in saline) was 1 of 6, the survivor count (dose: 12.5 mg/kg/injection, schedule: Q01DX009 (ip), vehicle: suspension in saline) was 0 of 6 and the survivor count (dose: 25.0 mg/kg/injection, schedule: Q01DX009 (ip), vehicle: suspension in saline) was 0 of 6. For the same molecule, the survivor count [12] was 0 of 6, the survivor count [5] was 0 of 6 and the survivor count [13] was 0 of 6.

For C[n+]1c(/C=C\c2ccc(Cl)cc2)ccc2ccccc21, the survivor count (dose: 6.25 mg/kg/injection, schedule: Q01DX009 (ip), vehicle: saline with Tween-80) was 3 of 6.

CNC(=O)Oc1ncccc1[N+](=O)[O-] was tested, and the survivor count (dose: 400.0 mg/kg/injection, schedule: Q01DX009 (ip), vehicle: saline) was 0 of 6.
